The target in the assay is ΔF508 cystic fibrosis transmembrane conductance regulator (CFTR) (human) (UniProt P13569). The assay can be described thus: affinity purification with mass spectrometry; co-IP of untagged CFTR from pre-cleared HEK293T lysates with Protein G beads crosslinked to the 24-1 antibody, overnight at 4°C; TMTpro 16plex LC-MS/MS; interactors filtered against a GFP transfection control; ΔF508 CFTR expressed from the native or the RFmut (silent mutations) transcript.

By UniProt entry, the sequences of proteins in these tests, tags left out. Where a name states a change or a piece, a line headed by the entry shows the natural chain unless it says otherwise. Chains listed by the source or under a name are the forms on record and can include a tag or linker.
ΔF508 cystic fibrosis transmembrane conductance regulator (CFTR) (P13569, form named): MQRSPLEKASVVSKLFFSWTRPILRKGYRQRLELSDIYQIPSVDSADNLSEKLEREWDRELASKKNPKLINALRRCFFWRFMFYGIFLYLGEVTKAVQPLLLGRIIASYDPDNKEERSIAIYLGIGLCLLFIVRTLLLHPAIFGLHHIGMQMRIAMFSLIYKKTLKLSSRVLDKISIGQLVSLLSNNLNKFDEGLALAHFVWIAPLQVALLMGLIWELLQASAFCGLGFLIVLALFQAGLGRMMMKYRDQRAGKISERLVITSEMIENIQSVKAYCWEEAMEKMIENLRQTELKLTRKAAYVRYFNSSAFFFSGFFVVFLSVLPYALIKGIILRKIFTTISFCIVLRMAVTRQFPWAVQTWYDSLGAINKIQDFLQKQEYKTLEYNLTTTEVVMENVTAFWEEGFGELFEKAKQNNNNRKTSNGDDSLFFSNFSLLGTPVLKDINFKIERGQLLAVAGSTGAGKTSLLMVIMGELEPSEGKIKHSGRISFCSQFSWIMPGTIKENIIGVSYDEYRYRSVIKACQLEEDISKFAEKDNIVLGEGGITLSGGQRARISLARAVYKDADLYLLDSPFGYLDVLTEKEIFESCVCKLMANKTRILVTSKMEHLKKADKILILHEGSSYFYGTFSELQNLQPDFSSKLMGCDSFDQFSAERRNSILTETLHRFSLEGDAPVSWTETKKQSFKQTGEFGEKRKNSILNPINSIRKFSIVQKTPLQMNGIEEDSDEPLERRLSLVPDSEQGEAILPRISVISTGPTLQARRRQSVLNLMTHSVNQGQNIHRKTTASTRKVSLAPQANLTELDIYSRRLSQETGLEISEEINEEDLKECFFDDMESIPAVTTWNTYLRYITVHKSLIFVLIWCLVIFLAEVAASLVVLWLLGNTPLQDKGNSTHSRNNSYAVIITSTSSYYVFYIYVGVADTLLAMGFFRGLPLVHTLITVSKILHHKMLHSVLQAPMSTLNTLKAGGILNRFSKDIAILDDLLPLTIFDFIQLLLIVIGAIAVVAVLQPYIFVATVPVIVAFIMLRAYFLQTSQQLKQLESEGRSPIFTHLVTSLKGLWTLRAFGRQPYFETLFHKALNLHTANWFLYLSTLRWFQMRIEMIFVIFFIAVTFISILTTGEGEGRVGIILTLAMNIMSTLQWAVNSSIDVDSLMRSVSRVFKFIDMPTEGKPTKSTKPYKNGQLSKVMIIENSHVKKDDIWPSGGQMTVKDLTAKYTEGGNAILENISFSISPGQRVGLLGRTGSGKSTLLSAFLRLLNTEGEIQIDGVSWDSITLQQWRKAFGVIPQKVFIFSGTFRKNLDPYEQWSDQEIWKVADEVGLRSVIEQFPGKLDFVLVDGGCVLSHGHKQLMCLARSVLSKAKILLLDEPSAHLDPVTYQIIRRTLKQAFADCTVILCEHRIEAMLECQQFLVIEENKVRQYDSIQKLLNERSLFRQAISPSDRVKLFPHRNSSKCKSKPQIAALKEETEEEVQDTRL
UniProt O75190: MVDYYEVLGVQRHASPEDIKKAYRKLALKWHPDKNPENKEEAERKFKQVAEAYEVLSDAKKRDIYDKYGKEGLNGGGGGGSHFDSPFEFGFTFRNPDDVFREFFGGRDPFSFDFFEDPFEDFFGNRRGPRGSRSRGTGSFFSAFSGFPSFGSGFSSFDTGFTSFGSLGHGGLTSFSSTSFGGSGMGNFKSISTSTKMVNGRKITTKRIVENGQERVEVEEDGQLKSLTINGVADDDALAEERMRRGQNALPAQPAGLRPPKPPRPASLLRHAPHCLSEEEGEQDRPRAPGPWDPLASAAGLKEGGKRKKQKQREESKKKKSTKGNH
UniProt O95197: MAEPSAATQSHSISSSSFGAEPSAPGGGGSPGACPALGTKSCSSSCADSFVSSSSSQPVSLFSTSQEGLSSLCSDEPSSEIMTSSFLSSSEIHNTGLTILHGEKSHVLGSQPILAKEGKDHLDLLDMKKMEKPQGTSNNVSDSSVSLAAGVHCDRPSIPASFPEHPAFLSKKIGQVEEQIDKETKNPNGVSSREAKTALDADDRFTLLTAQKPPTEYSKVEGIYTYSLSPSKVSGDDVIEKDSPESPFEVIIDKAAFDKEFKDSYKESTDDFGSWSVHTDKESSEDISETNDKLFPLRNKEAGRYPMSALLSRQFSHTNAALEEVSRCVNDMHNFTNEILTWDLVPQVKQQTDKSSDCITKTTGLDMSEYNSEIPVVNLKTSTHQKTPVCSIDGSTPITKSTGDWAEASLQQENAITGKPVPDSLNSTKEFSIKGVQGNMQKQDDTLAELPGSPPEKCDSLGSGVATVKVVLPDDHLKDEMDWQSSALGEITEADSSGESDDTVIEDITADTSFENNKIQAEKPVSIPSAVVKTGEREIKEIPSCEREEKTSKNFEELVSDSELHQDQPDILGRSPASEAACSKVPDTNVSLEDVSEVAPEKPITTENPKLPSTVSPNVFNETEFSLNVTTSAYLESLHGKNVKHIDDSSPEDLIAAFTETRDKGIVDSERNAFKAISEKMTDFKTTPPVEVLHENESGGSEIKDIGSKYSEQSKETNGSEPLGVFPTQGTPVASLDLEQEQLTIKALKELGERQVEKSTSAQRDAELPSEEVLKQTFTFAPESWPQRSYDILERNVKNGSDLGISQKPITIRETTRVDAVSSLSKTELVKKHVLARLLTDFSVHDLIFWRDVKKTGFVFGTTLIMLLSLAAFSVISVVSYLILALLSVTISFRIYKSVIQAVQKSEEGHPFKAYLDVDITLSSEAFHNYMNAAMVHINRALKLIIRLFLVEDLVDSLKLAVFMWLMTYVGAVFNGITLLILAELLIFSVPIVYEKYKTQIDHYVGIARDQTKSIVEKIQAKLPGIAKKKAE
UniProt P34932: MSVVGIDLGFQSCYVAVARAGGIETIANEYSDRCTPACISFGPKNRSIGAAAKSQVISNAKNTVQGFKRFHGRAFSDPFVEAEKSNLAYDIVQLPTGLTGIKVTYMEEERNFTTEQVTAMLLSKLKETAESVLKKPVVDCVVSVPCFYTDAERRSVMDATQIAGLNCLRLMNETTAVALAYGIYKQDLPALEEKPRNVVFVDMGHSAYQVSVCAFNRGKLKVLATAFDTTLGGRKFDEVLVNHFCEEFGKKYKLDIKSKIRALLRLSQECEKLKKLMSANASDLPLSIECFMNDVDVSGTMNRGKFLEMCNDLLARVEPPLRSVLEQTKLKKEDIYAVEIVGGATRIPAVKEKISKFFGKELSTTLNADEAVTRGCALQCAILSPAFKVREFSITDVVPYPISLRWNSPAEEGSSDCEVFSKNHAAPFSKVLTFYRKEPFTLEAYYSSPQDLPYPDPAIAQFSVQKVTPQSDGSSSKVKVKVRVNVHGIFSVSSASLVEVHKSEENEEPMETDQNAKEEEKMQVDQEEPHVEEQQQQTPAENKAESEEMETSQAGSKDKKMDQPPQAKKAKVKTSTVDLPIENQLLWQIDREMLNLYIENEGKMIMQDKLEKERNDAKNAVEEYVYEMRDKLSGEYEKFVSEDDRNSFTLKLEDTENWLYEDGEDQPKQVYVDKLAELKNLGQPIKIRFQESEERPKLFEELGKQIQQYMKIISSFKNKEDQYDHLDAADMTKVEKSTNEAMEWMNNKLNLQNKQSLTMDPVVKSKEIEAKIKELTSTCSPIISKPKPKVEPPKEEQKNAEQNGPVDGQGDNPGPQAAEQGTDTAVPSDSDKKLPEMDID
UniProt P17066: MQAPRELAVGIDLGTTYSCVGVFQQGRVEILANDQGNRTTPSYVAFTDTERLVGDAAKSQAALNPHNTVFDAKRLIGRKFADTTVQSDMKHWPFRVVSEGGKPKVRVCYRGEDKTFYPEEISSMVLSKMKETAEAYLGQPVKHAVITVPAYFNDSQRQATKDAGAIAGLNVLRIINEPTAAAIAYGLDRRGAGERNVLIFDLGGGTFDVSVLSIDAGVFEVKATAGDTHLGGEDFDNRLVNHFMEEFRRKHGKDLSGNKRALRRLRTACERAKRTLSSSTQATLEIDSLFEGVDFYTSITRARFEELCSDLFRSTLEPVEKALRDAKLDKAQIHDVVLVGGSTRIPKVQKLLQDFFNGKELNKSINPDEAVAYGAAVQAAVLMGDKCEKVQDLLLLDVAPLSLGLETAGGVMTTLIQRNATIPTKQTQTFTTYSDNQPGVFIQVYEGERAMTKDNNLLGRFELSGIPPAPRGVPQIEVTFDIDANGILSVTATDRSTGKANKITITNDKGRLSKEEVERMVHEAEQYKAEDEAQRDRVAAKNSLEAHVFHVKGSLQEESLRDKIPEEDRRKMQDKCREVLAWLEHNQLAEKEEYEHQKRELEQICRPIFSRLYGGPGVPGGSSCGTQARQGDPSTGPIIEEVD
UniProt P04792: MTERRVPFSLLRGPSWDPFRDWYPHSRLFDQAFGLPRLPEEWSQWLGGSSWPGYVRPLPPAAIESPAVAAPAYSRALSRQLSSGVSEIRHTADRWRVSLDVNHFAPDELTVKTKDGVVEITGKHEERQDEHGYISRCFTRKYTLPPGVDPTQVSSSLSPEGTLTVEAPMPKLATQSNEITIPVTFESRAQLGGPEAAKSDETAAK
UniProt Q99613: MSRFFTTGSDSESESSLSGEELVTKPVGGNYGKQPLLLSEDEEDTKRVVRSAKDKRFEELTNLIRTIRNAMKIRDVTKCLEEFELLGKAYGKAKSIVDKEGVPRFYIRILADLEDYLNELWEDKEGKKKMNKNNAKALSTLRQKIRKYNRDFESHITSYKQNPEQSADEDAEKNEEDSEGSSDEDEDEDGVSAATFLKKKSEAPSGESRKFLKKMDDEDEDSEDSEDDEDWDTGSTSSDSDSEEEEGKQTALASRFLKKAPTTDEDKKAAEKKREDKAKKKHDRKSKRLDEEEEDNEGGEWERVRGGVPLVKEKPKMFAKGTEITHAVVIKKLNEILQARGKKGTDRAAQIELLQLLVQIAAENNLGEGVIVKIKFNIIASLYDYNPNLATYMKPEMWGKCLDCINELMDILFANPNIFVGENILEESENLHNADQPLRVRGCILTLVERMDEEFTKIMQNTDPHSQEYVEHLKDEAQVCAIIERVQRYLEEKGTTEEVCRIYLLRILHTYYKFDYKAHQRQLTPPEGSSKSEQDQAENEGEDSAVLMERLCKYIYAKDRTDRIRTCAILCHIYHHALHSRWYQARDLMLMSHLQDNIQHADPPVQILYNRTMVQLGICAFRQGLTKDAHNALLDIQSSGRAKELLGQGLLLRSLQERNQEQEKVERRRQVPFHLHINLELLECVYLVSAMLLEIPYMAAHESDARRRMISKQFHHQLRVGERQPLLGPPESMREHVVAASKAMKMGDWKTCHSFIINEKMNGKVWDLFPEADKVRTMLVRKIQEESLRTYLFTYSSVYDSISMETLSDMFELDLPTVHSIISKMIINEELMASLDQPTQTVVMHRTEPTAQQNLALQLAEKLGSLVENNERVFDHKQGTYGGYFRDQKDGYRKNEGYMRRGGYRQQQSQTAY
UniProt P60228: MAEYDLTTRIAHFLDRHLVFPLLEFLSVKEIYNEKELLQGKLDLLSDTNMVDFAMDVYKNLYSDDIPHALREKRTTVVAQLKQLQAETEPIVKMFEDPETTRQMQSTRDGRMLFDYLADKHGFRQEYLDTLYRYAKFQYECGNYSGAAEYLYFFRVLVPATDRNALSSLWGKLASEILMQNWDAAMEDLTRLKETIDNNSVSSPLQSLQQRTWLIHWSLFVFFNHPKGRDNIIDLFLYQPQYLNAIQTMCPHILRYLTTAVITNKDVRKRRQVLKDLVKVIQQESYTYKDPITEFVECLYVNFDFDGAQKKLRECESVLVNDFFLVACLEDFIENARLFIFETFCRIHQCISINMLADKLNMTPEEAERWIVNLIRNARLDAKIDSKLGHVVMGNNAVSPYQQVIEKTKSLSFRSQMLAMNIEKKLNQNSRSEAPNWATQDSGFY
UniProt P49770: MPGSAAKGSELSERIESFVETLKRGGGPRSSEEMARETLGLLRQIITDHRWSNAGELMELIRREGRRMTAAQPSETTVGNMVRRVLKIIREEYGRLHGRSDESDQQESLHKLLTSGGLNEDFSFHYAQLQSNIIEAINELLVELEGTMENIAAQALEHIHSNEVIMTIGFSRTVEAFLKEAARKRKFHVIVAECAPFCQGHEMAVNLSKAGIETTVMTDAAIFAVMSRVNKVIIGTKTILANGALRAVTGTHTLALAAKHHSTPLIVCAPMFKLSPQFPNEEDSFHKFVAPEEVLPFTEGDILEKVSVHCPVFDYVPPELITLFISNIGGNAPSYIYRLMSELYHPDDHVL

Results are given in words; binding and its absence hold for the method and conditions named. Binding seen in cells or lysates may run through a third protein. Here binding means that the protein was enriched with, or labelled near, the bait; the list need not be complete.

In the case of CANX (from UniProt P27824 21-592), the binding result is given as “binds”.

Consider DNAJB6 (from UniProt O75190 1-326), for which the binding result is “binds”.

“ER-PHAGY protein RTN3 (from UniProt O95197 1-1032)”: the binding entry is “binds”.

Consider HspA4 (from UniProt P34932 1-840), for which the binding entry was “binds”.

For HspA6 (from UniProt P17066 1-643), the binding entry is listed as “binds”.

In the case of HspB1 (from UniProt P04792 1-205), the binding result was “binds”.

As for “UBE3C ubiquitin ligase (from UniProt Q15386 1-1083) (enzyme)”, the binding result is “binds”.

Regarding eIF3c (from UniProt Q99613 1-913), the binding entry was “binds”.

eIF3e (from UniProt P60228 1-445): the binding result is “binds”.

On to eiF2B2 (from UniProt P49770 1-351), for which the binding entry is “binds”.

Source of the values: paper PMC11290997.
